Test results reported in article PMC7610364 (Nature microbiology, 2020).

Test system: TbCLK1 C215A
Experiment: Recombinant TbCLK1 C215A mutant enzyme activity assay
Type: biochemical, Trypanosoma brucei
Conditions: dose-response, result in words

**Q.** With CN[C@@H]1C[C@H]2O[C@@](C)([C@@H]1OC)n1c3ccccc3c3c4c(c5c6ccccc6n2c5c31)C(=O)NC4 [staurosporine] as the compound, how does the “inhibition of TbCLK1 C215A” value read?
**A.** is inhibited
